PubChem BioAssay
Some of the results follow. Further columns of the screen follow, without active or inactive calls.

test: rescue of PC12 cells from polyQ htt toxicity – LDH release (AID 1610); conditions: PC12 mutant huntingtin toxicity, final LDH at 4 uM, stronger effect = lower value

| SMILES | normalised LDH release |
| --- | --- |
| N[C@@H]1[C@@H](O)[C@H](O)[C@@H](CO)O[C@H]1O | 0.922 |
| CN(C)/N=N/c1nc[nH]c1C(N)=O | 0.719 |
| COc1ccc2c(c1OC)C(=O)O[C@H]2[C@@H]1c2ccccc2CCN1C | 0.941 |
| CCN(CCO)CCCC(C)Nc1ccnc2cc(Cl)ccc12 (centres undefined) | 1.16 |
| Nc1ccc(S(N)(=O)=O)cc1 | 0.826 |
| c1coc(CNc2ncnc3nc[nH]c23)c1 | 0.489 |
| C[C@H]1CC2C([C@@H](O)C[C@@]3(C)C2CC[C@]3(O)C(=O)CO)[C@@]2(C)C=CC(=O)C=C12 (some centres undefined) | 0.705 |
| O=C(O)c1cccnc1 | 0.941 |
| CO/N=C(\C(=O)NC1C(=O)N2C(C(=O)O)=C(CSc3nc(=O)c(O)nn3C)CS[C@H]12)c1csc(N)n1 (some centres undefined) | 0.786 |
| CN(C)CCC(c1ccccc1)c1ccccn1 (centres undefined) | 0.622 |
| Clc1ccc2c(c1)C(N1CCNCC1)=Nc1ccccc1O2 | 0.421 |
| CN1CC(=O)N=C1N | 1.13 |
| NC[C@@H]1O[C@H](O[C@@H]2[C@@H](CO)OC(O[C@@H]3[C@@H](O)[C@H](N)C[C@H](N)[C@H]3OC3O[C@H](CO)[C@@H](O)[C@H](O)[C@H]3N)[C@@H]2O)[C@H](N)[C@@H](O)[C@@H]1O (some centres undefined) | 1.12 |
| CN1CCN(CCCN2c3ccccc3Sc3ccc(C(F)(F)F)cc32)CC1 | 1.11 |
| Cn1cnc2c1c(=O)[nH]c(=O)n2C | 0.741 |
| CC1=C(C(=O)O)N2C(=O)[C@@H](NC(=O)[C@H](N)C3=CCC=CC3)[C@H]2SC1 | 0.968 |
| CCCCC(CC)CN1CN(CC(CC)CCCC)CC(C)(N)C1 (centres undefined) | 0.881 |
| CCN(CC)CCOC(=O)C1(C2CCCCC2)CCCCC1 | 0.941 |
| NC(=O)NC1NC(=O)NC1=O (centres undefined) | 0.996 |

A second format for two compounds above.
N[C@@H]1[C@@H](O)[C@H](O)[C@@H](CO)O[C@H]1O
  normalised LDH release: 0.922
CN1CC(=O)N=C1N
  normalised LDH release: 1.13
